Measurements: patent publication US7510845B2, “Assay employing G protein-coupled receptor expressed in dorsal root ganglia” (California Institute of Technology, priority 2000, dated 2009)
Entries after “also recorded” stand apart in the source; their conditions may differ. Like-named read-outs stand apart in the source and are kept apart here. Not every detail of the peptide structures is certain; ends, links or a residue may be inferred. For some assays here: At least one structure is not confirmed: it was looked up by name or label, or the drawing left a doubt. Ends that are not written are not given here.

Legend:
MRGA4 = target: T1, MRGA4 (Mus musculus, UniProt Q91WW2, A204G); assay: Intracellular Ca2+ release assay (Fura-2), MRGA4-GFP in HEK-Gα15 cells; assay type: cell-based
T1 construct: cDNAs encoding eight full-length variants of Mrg receptors (mMrgA1-8) are provided; expressed in transfected cells; host or cells: HEK293-Galpha15 (A2) or HEK293 lacking Galpha15 (A5), transient transfection with FuGENE 6
T1 sequence (Q91WW2 9-313 A204G limits assumed): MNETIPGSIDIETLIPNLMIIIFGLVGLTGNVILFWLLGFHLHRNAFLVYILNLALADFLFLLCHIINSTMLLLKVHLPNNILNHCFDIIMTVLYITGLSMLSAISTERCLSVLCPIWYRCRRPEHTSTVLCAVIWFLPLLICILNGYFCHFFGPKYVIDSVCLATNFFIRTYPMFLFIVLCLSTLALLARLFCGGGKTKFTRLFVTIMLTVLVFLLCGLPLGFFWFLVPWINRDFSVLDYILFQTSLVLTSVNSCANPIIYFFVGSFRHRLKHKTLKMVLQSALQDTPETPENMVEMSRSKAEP
Description: To identify ligands for the Mrg receptors, selected MrgA genes were tested in a calcium release assay. MrgA genes, including MrgA1 and MrgA4, were cloned into a eukaryotic expression vector and transfected into human embryonic kidney (HEK) 293 cells. HEK-293 cells were obtained from the ATCC and cultured in DMEM supplemented with 10% fetal bovine serum. An HEK293-Gα15 cell line stably expressing Gα15 was provided by Aurora Biosciences Corporation and grown on Matrigel™ (growth factor reduced Matrigel, Becton Dickinson, diluted 1:200 with serum-free DMEM)-coated flasks and maintained at 37° C. in DMEM (GibcoBRL) supplemented with 10% heat-inactivated fetal bovine serum, 2 mM L-glutamine, 0.1 mM non-essential amino acids, 1 mM sodium pyruvate, 25 mM HEPES and 3 μg/ml blastcidin-S. For transfection, cells were seeded on Matrigel-coated 35 mm glass-bottom dishes (Bioptech Inc., Butler, Pa.). After 16-24 hr, cells were transfected using FuGENE 6 (Roche). Transfection efficiencies were estimated by visualization of GFP fused to the C-terminus of MrgA1 and A4, and were typically >60%. […]
(§1) To increase the sensitivity of the calcium release assay, in some experiments the MRGA-GFP fusion proteins were expressed in HEK 293 cells modified to express Gα15, which couples GPCRs to a signal transduction pathway leading to the release of intracellular free Ca^2+ (Offermann and Simon J Biol Chem 270: 15175-80 (1995)). This calcium release can be monitored ratiometrically using Fura-2 as a fluorescent indicator dye (Tsien et al. Cell Calcium 6: 145-57 (1985)) (FIGS. 11A-C). […]
(§2) Briefly, transfected cells were washed once in Hank's balanced salt solution with 11 mM D-glucose and 10 mM HEPES, pH 7.4 (assay buffer) and loaded with 2 μM Fura-2 AM (Molecular Probes) at room temperature for 90 min, with rotation. […] A cooled CCD camera (Photometric) was used in detecting fluorescence. […] Fura-2 fluorescence signals (340 nm, 380 nm and the 340/380 ratio) originating from GFP-positive cells were continuously monitored at 0.4- or 1-second intervals and collected using Axon Imaging Workbench 4.0 software (Axon). […]

MRGA1 [1] = target: T2, MRGA1 (Mus musculus, UniProt Q91WW5); assay: Intracellular Ca2+ release assay, MRGA1 in HEK cells lacking Gα15; assay type: cell-based; details: ligand 1 μM
T2 construct: cDNAs encoding eight full-length variants of Mrg receptors (mMrgA1-8) are provided; expressed in transfected cells; host or cells: HEK293-Galpha15 (A1) or HEK293 lacking Galpha15 (A4), transient transfection with FuGENE 6
T2 sequence (Q91WW5 1-304): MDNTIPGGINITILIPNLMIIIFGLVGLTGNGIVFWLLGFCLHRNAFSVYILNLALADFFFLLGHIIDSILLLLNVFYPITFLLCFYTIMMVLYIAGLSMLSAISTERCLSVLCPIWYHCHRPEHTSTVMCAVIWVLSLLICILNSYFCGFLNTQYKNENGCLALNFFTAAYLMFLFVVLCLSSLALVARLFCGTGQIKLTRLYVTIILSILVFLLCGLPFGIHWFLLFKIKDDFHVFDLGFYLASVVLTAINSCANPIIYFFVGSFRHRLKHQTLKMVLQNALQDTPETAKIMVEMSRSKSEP
Description: To identify ligands for the Mrg receptors, selected MrgA genes were tested in a calcium release assay. MrgA genes, including MrgA1 and MrgA4, were cloned into a eukaryotic expression vector and transfected into human embryonic kidney (HEK) 293 cells. HEK-293 cells were obtained from the ATCC and cultured in DMEM supplemented with 10% fetal bovine serum. […]
as §2

[2] = system: chronic pain models, including neuropathic pain; details: intrathecal injection; several chronic pain models; cited from earlier work
MRGA1 [3] = target: T2, MRGA1; assay: Intracellular Ca2+ release assay (Fura-2), MRGA1-GFP in HEK-Gα15 cells; assay type: cell-based; details: for EC50: read-out: Relative efficacy of activation of MRGA1, HEK cells, RF-amide ligands
Description: To identify ligands for the Mrg receptors, selected MrgA genes were tested in a calcium release assay. MrgA genes, including MrgA1 and MrgA4, were cloned into a eukaryotic expression vector and transfected into human embryonic kidney (HEK) 293 cells. HEK-293 cells were obtained from the ATCC and cultured in DMEM supplemented with 10% fetal bovine serum. An HEK293-Gα15 cell line stably expressing Gα15 was provided by Aurora Biosciences Corporation and grown on Matrigel™ (growth factor reduced Matrigel, Becton Dickinson, diluted 1:200 with serum-free DMEM)-coated flasks and maintained at 37° C. in DMEM (GibcoBRL) supplemented with 10% heat-inactivated fetal bovine serum, 2 mM L-glutamine, 0.1 mM non-essential amino acids, 1 mM sodium pyruvate, 25 mM HEPES and 3 μg/ml blastcidin-S. For transfection, cells were seeded on Matrigel-coated 35 mm glass-bottom dishes (Bioptech Inc., Butler, Pa.). After 16-24 hr, cells were transfected using FuGENE 6 (Roche).
as §1, §2

[4] = read-out: Relative efficacy of activation of MRGA4, HEK cells, RF-amide ligands

Molecule | EC50 (MRGA4; [4]) | Calcium response of MRGA1-expressing cells to ligand (MRGA1 [1]) | Antinociceptive effect [2] | EC50 (MRGA1 [3]) | EC50 (MRGA4; read-out: EC50 for activation of MRGA4 (calcium response), HEK-Gα15 cells, dose-response, normalized to 5 μM NPAF) | Calcium response of MRGA1-expressing cells to ligand (MRGA1 [3]; HEK-Gα15 cells, ligand 1 μM)
CC(C)C[C@H](NC(=O)[C@@H](N)Cc1ccccc1)C(=O)N[C@@H](Cc1ccccc1)C(=O)N[C@@H](CCC(N)=O)C(=O)N1CCC[C@H]1C(=O)N[C@@H](CCC(N)=O)C(=O)N[C@@H](CCCNC(=N)N)C(=O)N[C@@H](Cc1ccccc1)C(N)=O [NPFF] | > 1000 nM | lower than that to FLRF; also recorded: respond | long-lasting antinociceptive effects | 100 to 500 nM | – | –
AGEGLNSQFWSLAAPQRF-NH2 [NPAF] | 10 to 100 nM | – | – | > 1000 nM | ~60 nM | –
C[C@H](N)C(=O)NCC(=O)N[C@H]1CSSC[C@@H](C(=O)O)NC(=O)[C@H](CO)NC(=O)[C@H]([C@@H](C)O)NC(=O)[C@H](Cc2ccccc2)NC(=O)[C@H]([C@@H](C)O)NC(=O)[C@H](CCCCN)NC(=O)[C@H](Cc2c[nH]c3ccccc23)NC(=O)[C@H](Cc2ccccc2)NC(=O)[C@H](Cc2ccccc2)NC(=O)[C@H](CC(N)=O)NC(=O)[C@H](CCCCN)NC1=O [somatostatin] | – | – | – | – | – | some level of activation
